From PubChem BioAssay AID588590 (National Center for Advancing Translational Sciences (NCATS), 2011)
Out of some 390,000 compounds screened, about 4,000 (1%) were called active. This list was built around the results that the source calls inconclusive (neither active nor inactive); the mix of calls is not that of the screen. Calls follow the shape of the dose curve; as a rule, active = well fitted inhibition curve with a large enough effect; inconclusive = small, poorly fitted or top-dose-only effect, or another doubt; inactive = no such curve, though single readings can be large or run the other way. Where the call is inconclusive, the potency comes from a doubtful curve fit.

Sequences of proteins named here, by UniProt entry; tags and fusion partners are left off. A change or cut given only in a name is not applied to a line headed by its entry.
UniProt Q9UNA4: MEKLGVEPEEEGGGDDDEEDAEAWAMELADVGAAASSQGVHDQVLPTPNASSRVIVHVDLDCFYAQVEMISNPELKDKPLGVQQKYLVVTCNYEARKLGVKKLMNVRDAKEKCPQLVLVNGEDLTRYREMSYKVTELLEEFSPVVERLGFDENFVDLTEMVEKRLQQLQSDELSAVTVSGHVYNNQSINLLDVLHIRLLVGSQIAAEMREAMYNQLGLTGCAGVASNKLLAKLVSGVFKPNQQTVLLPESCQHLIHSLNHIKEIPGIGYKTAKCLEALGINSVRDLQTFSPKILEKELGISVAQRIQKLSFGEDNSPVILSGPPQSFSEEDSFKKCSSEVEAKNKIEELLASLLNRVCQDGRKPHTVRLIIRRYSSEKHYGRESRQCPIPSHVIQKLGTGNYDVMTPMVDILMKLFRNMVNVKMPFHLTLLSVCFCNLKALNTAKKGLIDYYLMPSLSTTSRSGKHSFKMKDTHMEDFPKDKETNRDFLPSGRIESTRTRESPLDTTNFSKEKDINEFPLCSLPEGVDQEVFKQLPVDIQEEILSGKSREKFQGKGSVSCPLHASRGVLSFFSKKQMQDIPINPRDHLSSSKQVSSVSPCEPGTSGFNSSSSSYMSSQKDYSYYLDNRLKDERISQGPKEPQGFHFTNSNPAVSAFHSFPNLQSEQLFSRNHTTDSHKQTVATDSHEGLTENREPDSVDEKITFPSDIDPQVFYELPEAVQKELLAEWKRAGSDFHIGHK

The molecules below were run against DNA polymerase iota (Homo sapiens) (UniProt Q9UNA4) (assay: qHTS for Inhibitors of Polymerase Iota). Conditions: Pol iota fluorescent replication assay, 10 min; series mostly up to 115 µM; activity, negative = inhibition: at the top concentration.
Procedure, shortened: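 Pol iota at 10 nM preincubated 15 min with compounds at room temperature; reaction started with fluorescent substrate, 50 nM final. Fluorescence read kinetically at 0 and 10 min; buffer-only wells as negative control.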
Potency is read from the fitted curve at half-maximal effect.

Structure (SMILES) | activity, negative = inhibition | Potency
CC(=O)Nc1ccc(NC(=O)COC(=O)c2ccc(S(=O)(=O)NCc3ccco3)cc2)cc1 | inactive: -17.2% | –
O=C1CCCC2=C1C(c1ccc(Br)cc1)c1c([nH]c(=S)[nH]c1=O)N2 (stereo unspecified) | – | inconclusive: 14.1 µM [inhibitor, full curve, poor fit]
COc1ccccc1N1CC(C(=O)OC(C)C(=O)N2CCCc3ccccc32)CC1=O (stereo unspecified) | inactive: 41.3% | –
Cc1cc(C)n(-c2nnc(C)n2NS(=O)(=O)c2ccc(F)cc2)n1 | – | inconclusive: 100 µM [inhibitor, partial curve, poor fit]
CC(=O)c1c(OC(=O)c2ccc(C)cc2)c2ccccc2n1C | – | inconclusive: 70.8 µM [inhibitor, single point]
CCN(CC)C(=O)CSc1nc(-c2cccs2)cc(-c2cccs2)c1C#N | – | inconclusive: 31.6 µM [inhibitor, partial curve, poor fit]
CC(=O)Nc1cc(NC(C)=O)cc(C(=O)OCC(=O)Nc2ccc(S(=O)(=O)NC3=NCCCCC3)cc2)c1 | – | inconclusive: 89.1 µM [inhibitor, single point]
NC(=O)CC(NC(=O)Cc1ccc(Br)cc1)c1ccc(NCCc2ccc(Cl)cc2)c([N+](=O)[O-])c1 (stereo unspecified) | – | inconclusive: 79.4 µM [inhibitor, single point]
COc1ccc2nc(C)cc(Nc3ccc(C)cc3)c2c1 | inactive: -11.1% | –
Cc1ccccc1S(=O)(=O)Nc1ncnc2sccc12 | – | inconclusive: 0.708 µM [inhibitor, full curve, poor fit]
CC(NC(=O)/C(C#N)=C/c1ccc(C(=O)O)cc1)c1ccccc1 (stereo unspecified) | – | inconclusive: 10 µM [inhibitor, full curve, poor fit]
CCCCNC(C(=O)Nc1ccc([N+](=O)[O-])cc1Br)c1ccccc1 (stereo unspecified) | – | inconclusive: 112 µM [inhibitor, single point]
CCCC(=O)OCCNc1cc(Sc2nccn2C)c2nonc2c1[N+](=O)[O-] | – | inconclusive: 35.5 µM [inhibitor, single point]
CC(C)(C)c1ccc2c(c1)OC(C(=O)N/N=C/c1ccc([N+](=O)[O-])o1)CO2 (stereo unspecified) | – | inconclusive: 22.4 µM [inhibitor, partial curve, poor fit]
CC(C)c1ccc(S(=O)(=O)/N=C2/C=C(Sc3ncn[nH]3)C(=O)c3ccccc32)cc1 | – | active: 3.55 µM
COc1ccccc1NC(=O)c1nnn(CC(=O)Nc2ccccc2)c1N | – | inconclusive: 35.5 µM [inhibitor, single point]
COc1cccc(/C=N/Nc2ncnc3c2[nH]c2ccc(C)cc23)c1OC | – | active: 12.6 µM
Cc1nc2nc(SCC(=O)NCCc3ccccc3)nn2c(C)c1Cc1c(F)cccc1Cl | inactive: 3.92% | –
COc1ccc(C(=O)N(Cc2ccc(C(C)C)cc2)C2CCS(=O)(=O)C2)cc1 (stereo unspecified) | inactive: -1.15% | –
Cc1c(C2=CCN(S(=O)(=O)c3ccc(CC(C)C)cc3)CC2)c2ccccc2n1CC(=O)N1CCCC1 | – | inconclusive: 31.6 µM [inhibitor, partial curve, poor fit]
Cc1cc(=O)oc2c3c(ccc12)OC/C3=N/N | – | inconclusive: 14.1 µM [inhibitor, partial curve, poor fit]
COc1ccc(C(=O)c2c(N)sc3c2CCN(C)C3)cc1 | – | inconclusive: 14.1 µM [inhibitor, single point]

Structure (SMILES) | activity, negative = inhibition | Potency
CCOC(=O)c1c(NC(C)=O)sc2c(OCC(O)CNC(C)(C)C)c(Br)ccc12 (stereo unspecified) | – | inconclusive: 56.2 µM [inhibitor, partial curve, poor fit]
Cc1ccccc1OCC(=O)N(Cc1nc(-c2ccccc2)no1)C(C)C | – | inconclusive: 89.1 µM [inhibitor, partial curve, poor fit]
COc1c(C(O)CC(C)C)ccc2c1C(=O)OCc1cc(C)cc(O)c1O2 (stereo unspecified) | – | inconclusive: 79.4 µM [inhibitor, partial curve]
FC(F)(F)Oc1ccc(NC(=S)Nc2ccccc2N2CCOCC2)cc1 | inactive: 9.41% | –
COc1ccc(C(CC(=O)O)NC(=O)c2cccs2)cc1 (stereo unspecified) | – | inconclusive: 56.2 µM [inhibitor, partial curve, poor fit]
COc1cc(/C=N/NC(N)=S)ccc1OCC(=O)Nc1ccc(C)cc1 | – | inconclusive: 35.5 µM [inhibitor, single point]
CCOC(=O)c1ccc(NC(=O)c2ccccc2)cc1 | – | inconclusive: 35.5 µM [inhibitor, partial curve, poor fit]
CC1(C)CCC[C@]2(C)[C@H]3Cc4cc(O)ccc4O[C@]3(C)CC[C@@H]12 | – | inconclusive: 25.1 µM [inhibitor, partial curve, poor fit]
CCOc1ccc(C=NNc2ccc(S(=O)(=O)Nc3ccccc3C(=O)O)cc2[N+](=O)[O-])cc1OC | – | inconclusive: 31.6 µM [inhibitor, partial curve, poor fit]
O=C(Nc1ccc(Oc2ccccc2)cc1)c1ccc(Cn2c(=O)[nH]c3ccsc3c2=O)cc1 | – | inconclusive: 3.16 µM [inhibitor, partial curve, poor fit]
CC(C)(C)C(=O)Nc1ccc(C(=O)Nc2cccc(Oc3ccc(C(=O)O)c(C(=O)O)c3)c2)cc1 | inactive: -29.5% | –
CN1C(=O)/C(=C/c2coc3ccc(O)cc3c2=O)SC1=S | inactive: -17.3% | –
CC1=C(C(=O)OCC2CCCCC2)C(c2ccccc2F)CC(=O)N1 (stereo unspecified) | – | inconclusive: 89.1 µM [inhibitor, single point]
COc1ccccc1CNC(=O)C1CCCN(c2nnc(-n3c(C)ccc3C)s2)C1 (stereo unspecified) | inactive: -23.9% | –
COc1ccc(NC(=O)c2cc(-c3ccco3)nc3ccccc23)cc1S(=O)(=O)N1CCOCC1 | – | inconclusive: 8.91 µM [inhibitor, full curve, poor fit]
CCN1C(=O)[C@H]2[C@H]3CN=C(SCc4ccc(C)cc4)N3[C@@](C)(C(=O)OC)[C@H]2C1=O | – | inconclusive: 25.1 µM [inhibitor, single point]
O=C(NCc1csc(-c2cccs2)n1)C1CCCCC1 | – | inconclusive: 44.7 µM [inhibitor, partial curve, poor fit]
CCN(C(=O)CN(C)S(=O)(=O)c1ccc2c(c1)c(=O)n(C)c(=O)n2C)c1ccc(OC)cc1 | inactive: 12.7% | –
COc1cc2nc(N3CCCN(C)CC3)nc(N)c2cc1OC | inactive: -13.3% | –
CCc1cc(=O)oc2cc(OCc3ccc(C(=O)O)o3)ccc12 | – | inconclusive: 35.5 µM [inhibitor, single point]
CCOC(=O)c1ccc(NC(=O)C2CCCN(c3ccc(Sc4ccc(C)cc4)nn3)C2)cc1 (stereo unspecified) | inactive: 26.5% | –
Cc1ccccc1-c1noc(C(C)NC(=O)c2ccco2)n1 (stereo unspecified) | – | inactive

At a glance, some entries already given:
Structure (SMILES) | activity, negative = inhibition | Potency
CCN(C(=O)CN(C)S(=O)(=O)c1ccc2c(c1)c(=O)n(C)c(=O)n2C)c1ccc(OC)cc1 | inactive: 12.7% | –
COc1cc2nc(N3CCCN(C)CC3)nc(N)c2cc1OC | inactive: -13.3% | –
CCc1cc(=O)oc2cc(OCc3ccc(C(=O)O)o3)ccc12 | – | inconclusive: 35.5 µM [inhibitor, single point]
CCOC(=O)c1ccc(NC(=O)C2CCCN(c3ccc(Sc4ccc(C)cc4)nn3)C2)cc1 (stereo unspecified) | inactive: 26.5% | –

Later entries.

Structure (SMILES) | activity, negative = inhibition | Potency
Cc1[nH]c2ccccc2c1C(=O)CN(C)c1ccccc1 | – | inconclusive: 22.4 µM [inhibitor, full curve, poor fit]
N#Cc1ccc(CN2C(=O)c3ccccc3Sc3ccc(C(=O)OCc4ccco4)cc32)cc1 | inactive: 27.2% | –
O=C(Nc1ccc(Cl)cc1)Nc1nnc(-c2ccncc2)s1 | inactive: 12.7% | –
Cc1ccc(C(C)C)c(OCC(=O)Nc2ccc(S(=O)(=O)Nc3onc(C)c3C)cc2)c1 | inactive: -18.9% | –
Cc1[nH]c2ccccc2c1/C=N/Nc1cccc(C(=O)O)c1 | – | inconclusive: 56.2 µM [inhibitor, partial curve, poor fit]
CCOC(=O)NNc1ccc2nonc2c1[N+](=O)[O-] | – | active: 10 µM
COc1ccc(N2C(S)=C(C#N)C(=O)NC2c2ccco2)cc1 (stereo unspecified) | – | inconclusive: 31.6 µM [inhibitor, partial curve, poor fit]
COc1ccc(C=Nc2ccc3[nH]ncc3c2)c(O)c1 | inactive: 49.6% | –
CC1CCN(C2=C(NS(=O)(=O)c3ccc(Br)cc3)C(=O)c3ccccc3C2=O)CC1 | – | active: 7.08 µM
Cc1nn(C)cc1/C=N/NC(=S)Nc1ccccc1 | – | inconclusive: 20 µM [inhibitor, single point]
CCOC(=O)COc1ccc2c(C#N)c3ccccn3c2c1 | – | inconclusive: 8.91 µM [inhibitor, full curve, poor fit]
COc1cc(CN(CC2CCCO2)C(=O)c2ccc(F)cc2)cc(OC)c1OC (stereo unspecified) | inactive: -1.36% | –
CCCOC(=O)c1ccc(Oc2c(-c3ccc(O)cc3O)n[nH]c2C)cc1 | – | inconclusive: 8.91 µM [inhibitor, full curve, poor fit]
O=C(NCC1CCCO1)C(=O)c1c[nH]c2ccccc12 (stereo unspecified) | – | inconclusive: 0.631 µM [inhibitor, full curve, poor fit]
COc1ccc(CNC(=O)CCC(=O)N2CC3CCCN3c3ccccc32)cc1 (stereo unspecified) | inactive: -23.8% | –
CCOC(=O)/C=C/C(=O)Nc1ccc(S(=O)(=O)N2CCCCCC2)cc1 | – | inconclusive: 31.6 µM [inhibitor, partial curve]
Cc1nc2ccccn2c1C(=O)NCc1ccc2c(c1)OCO2 | – | inconclusive: 89.1 µM [inhibitor, partial curve, poor fit]
O=C(Nc1nnc(C2CC2)s1)C1Cc2ccccc2CN1S(=O)(=O)c1ccccc1F (stereo unspecified) | – | inconclusive: 22.4 µM [inhibitor, partial curve, poor fit]
O=C(CN1C(=O)C2CCCCN2c2ccc(C(=O)N3CCCC3)cc21)NCc1cccc(Cl)c1 (stereo unspecified) | inactive: 24.4% | –
O=C1c2cccnc2C(Nc2ccc(Br)cc2)N1Cc1cccs1 (stereo unspecified) | – | inconclusive: 15.8 µM [inhibitor, partial curve, poor fit]
COc1cc2ccccc2cc1C(=O)NC(=S)Nc1cccc(C(=O)O)c1 | – | inconclusive: 35.5 µM [inhibitor, single point]
Cc1ccc(NC(=O)N2CCCCC2)cc1NC(=O)N1CCCCC1 | – | inconclusive: 35.5 µM [inhibitor, partial curve, poor fit]
